The record followed here is publication doi:10.1101/2023.02.09.527816.

These are yes or no findings as the source states them, for the method shown. Binding can be weak; no strength is given.

This assay addresses SlAN2 (tomato (Solanum lycopersicum)). The assay is described as follows: two-hybrid.

B1: SlHY5 (protein, UniProt Q9SM50 1-158)
chain: MQEQATSSIAASSLPSSSERSSSSALHHELKEGMESDDEIRRVPEMGGEATGTTSASGRDGVSAAGQAQPSAGTQRKRGRSPADKENKRLKRLLRNRVSAQQARERKKAYLIDLEARVKELETKNAELEERLSTLQNENQMLRHILKNTTAGAQEGRK
With B1, the binding result is “binds”.
